The values that follow come from article PMC11162468.

Sequences of proteins named here, by UniProt entry; tags and fusion partners are left off. Residues count along the entry.
UniProt P06213, residues 28-1382: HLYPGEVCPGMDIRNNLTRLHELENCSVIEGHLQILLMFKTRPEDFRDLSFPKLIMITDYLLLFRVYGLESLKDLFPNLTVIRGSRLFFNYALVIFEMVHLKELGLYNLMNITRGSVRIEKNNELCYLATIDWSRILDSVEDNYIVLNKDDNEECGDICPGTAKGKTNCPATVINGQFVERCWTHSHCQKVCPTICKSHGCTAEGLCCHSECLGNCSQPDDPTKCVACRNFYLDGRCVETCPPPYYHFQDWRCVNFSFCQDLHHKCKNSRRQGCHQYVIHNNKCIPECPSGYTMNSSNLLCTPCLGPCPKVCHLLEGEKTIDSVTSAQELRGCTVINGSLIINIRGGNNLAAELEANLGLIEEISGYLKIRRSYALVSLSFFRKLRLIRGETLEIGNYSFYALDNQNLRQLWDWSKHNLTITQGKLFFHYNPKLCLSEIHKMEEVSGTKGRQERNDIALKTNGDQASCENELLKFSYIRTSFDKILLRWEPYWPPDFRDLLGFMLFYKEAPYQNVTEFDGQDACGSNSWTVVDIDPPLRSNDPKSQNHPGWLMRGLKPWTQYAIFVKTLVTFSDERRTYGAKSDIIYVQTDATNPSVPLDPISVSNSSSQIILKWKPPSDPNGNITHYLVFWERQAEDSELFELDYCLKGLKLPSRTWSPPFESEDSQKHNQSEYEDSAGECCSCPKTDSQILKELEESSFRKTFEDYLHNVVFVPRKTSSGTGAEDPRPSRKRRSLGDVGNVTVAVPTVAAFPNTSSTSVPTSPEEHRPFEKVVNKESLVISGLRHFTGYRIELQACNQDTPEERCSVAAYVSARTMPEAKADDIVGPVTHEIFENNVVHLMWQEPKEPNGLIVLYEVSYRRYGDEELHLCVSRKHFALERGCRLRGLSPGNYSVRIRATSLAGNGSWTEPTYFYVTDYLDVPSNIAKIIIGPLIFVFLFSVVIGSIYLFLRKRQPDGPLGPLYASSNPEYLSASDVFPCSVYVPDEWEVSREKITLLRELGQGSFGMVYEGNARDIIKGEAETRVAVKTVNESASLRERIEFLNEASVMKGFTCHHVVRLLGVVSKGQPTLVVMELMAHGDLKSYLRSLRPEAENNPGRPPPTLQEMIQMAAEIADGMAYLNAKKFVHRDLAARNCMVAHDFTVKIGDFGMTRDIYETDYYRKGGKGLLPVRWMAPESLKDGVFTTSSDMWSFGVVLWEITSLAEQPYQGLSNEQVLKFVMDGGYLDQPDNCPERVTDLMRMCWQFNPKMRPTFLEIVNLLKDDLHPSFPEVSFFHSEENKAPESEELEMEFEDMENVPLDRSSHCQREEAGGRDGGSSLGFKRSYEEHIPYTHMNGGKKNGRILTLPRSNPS

Results are given in words; binding and its absence hold for the method and conditions named. Binding seen in cells or lysates may run through a third protein. These calls come from enrichment with a bait or labelling near it, and not all partners need be listed.

In one test the target is IR-EGFP (UniProt P06213). The experiment in a line: affinity purification with mass spectrometry; anti-IR immunoprecipitates from nuclear extracts of H226Br cells stably expressing IR-EGFP (against EGFP) and of A549 cells stimulated with IGF2 (50 ng/mL, 3 h); gel bands that were differentially greater analysed by LC-MS/MS; proteins common to the two analyses.
The target in test [1] is insulin receptor (IR) (human (endogenous in A549 and H226Br)) (UniProt P06213). The test is described as above.

For the substance “nucleophosmin (NPM1) (from UniProt P06748-1 1-294)”, the binding entry (with IR-EGFP; in test [1]) was “binds” in each case.
